Assay results: PMC11986068
Where two headings read alike, the source gives them in different places. These are yes or no findings as the source states them, for the method shown. Binding seen in cells or lysates may run through a third protein. Some entries that bind do so weakly or less than the wild type. For part of these data: Where a sequence is shown, tags or fusion partners need not be part of it.

Chains of the proteins cited; added tags and fusions are not shown. Lines headed by an entry give the natural chain unless they say otherwise; changes in a name come on top. A line that says so, or that is headed by a name, gives the form on record, which may keep a tag or linker.
UniProt P11276: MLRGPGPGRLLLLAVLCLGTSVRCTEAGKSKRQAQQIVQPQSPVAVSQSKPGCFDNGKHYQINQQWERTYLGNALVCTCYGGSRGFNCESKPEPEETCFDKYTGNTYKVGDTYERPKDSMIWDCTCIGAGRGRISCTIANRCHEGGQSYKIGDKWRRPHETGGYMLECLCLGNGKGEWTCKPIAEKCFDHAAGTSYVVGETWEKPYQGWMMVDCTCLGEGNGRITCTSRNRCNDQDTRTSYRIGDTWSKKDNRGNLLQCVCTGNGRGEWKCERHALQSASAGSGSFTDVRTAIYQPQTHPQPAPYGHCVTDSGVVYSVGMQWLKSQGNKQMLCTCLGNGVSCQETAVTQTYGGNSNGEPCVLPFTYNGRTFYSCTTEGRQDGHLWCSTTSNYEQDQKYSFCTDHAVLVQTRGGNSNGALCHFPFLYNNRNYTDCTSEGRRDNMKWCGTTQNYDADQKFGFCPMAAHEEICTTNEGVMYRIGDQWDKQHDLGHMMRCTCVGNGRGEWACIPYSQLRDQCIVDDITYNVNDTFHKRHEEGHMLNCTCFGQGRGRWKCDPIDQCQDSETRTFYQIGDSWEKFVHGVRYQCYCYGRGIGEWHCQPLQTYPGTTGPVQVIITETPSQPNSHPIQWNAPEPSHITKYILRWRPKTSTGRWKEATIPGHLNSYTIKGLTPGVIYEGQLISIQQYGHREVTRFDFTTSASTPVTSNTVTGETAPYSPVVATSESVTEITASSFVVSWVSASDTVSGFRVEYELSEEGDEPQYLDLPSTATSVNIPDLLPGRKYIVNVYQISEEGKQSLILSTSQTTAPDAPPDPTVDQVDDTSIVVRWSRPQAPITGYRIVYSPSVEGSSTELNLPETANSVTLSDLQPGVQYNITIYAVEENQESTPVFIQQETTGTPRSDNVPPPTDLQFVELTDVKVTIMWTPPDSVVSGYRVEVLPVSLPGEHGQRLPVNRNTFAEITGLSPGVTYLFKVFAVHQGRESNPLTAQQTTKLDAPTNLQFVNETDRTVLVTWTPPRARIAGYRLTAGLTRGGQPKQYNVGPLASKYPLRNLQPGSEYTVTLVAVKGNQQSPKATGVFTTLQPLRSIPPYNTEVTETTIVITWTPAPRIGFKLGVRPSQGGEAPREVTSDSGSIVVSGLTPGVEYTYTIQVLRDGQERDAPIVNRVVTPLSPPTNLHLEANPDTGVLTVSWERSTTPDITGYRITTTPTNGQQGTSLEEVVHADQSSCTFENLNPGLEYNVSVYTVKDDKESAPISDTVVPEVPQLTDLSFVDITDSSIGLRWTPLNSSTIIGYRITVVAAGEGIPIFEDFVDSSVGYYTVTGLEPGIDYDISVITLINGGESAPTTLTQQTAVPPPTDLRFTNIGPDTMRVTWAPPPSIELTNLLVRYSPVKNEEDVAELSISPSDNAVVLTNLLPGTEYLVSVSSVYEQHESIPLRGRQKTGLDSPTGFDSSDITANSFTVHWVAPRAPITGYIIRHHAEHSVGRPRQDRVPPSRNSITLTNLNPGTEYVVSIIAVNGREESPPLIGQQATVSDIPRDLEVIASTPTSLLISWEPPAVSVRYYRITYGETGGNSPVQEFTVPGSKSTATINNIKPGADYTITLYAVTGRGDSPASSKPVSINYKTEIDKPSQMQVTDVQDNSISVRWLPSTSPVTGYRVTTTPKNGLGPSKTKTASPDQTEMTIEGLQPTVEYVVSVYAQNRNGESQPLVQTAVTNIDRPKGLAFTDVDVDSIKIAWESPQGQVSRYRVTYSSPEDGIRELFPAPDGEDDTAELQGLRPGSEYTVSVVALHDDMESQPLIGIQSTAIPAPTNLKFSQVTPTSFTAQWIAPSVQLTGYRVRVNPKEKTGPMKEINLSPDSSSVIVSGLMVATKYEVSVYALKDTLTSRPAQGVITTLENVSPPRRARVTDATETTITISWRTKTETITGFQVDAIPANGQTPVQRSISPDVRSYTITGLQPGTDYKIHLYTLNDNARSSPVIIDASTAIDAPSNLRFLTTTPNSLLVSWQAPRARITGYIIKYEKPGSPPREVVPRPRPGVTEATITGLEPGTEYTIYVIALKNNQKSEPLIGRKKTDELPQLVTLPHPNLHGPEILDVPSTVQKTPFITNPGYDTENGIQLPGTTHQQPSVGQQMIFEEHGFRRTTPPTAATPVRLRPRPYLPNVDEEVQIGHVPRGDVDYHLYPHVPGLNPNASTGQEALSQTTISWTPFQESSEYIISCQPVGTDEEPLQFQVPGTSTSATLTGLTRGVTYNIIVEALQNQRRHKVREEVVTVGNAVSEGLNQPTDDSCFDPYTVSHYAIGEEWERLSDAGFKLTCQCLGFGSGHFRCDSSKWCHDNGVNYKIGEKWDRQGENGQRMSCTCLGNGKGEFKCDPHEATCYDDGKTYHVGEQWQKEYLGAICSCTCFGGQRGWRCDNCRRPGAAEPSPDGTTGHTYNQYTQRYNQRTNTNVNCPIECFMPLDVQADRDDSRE
Fn1 truncation mutant lacking FNI (2296-2425 aa) (P11276, form named): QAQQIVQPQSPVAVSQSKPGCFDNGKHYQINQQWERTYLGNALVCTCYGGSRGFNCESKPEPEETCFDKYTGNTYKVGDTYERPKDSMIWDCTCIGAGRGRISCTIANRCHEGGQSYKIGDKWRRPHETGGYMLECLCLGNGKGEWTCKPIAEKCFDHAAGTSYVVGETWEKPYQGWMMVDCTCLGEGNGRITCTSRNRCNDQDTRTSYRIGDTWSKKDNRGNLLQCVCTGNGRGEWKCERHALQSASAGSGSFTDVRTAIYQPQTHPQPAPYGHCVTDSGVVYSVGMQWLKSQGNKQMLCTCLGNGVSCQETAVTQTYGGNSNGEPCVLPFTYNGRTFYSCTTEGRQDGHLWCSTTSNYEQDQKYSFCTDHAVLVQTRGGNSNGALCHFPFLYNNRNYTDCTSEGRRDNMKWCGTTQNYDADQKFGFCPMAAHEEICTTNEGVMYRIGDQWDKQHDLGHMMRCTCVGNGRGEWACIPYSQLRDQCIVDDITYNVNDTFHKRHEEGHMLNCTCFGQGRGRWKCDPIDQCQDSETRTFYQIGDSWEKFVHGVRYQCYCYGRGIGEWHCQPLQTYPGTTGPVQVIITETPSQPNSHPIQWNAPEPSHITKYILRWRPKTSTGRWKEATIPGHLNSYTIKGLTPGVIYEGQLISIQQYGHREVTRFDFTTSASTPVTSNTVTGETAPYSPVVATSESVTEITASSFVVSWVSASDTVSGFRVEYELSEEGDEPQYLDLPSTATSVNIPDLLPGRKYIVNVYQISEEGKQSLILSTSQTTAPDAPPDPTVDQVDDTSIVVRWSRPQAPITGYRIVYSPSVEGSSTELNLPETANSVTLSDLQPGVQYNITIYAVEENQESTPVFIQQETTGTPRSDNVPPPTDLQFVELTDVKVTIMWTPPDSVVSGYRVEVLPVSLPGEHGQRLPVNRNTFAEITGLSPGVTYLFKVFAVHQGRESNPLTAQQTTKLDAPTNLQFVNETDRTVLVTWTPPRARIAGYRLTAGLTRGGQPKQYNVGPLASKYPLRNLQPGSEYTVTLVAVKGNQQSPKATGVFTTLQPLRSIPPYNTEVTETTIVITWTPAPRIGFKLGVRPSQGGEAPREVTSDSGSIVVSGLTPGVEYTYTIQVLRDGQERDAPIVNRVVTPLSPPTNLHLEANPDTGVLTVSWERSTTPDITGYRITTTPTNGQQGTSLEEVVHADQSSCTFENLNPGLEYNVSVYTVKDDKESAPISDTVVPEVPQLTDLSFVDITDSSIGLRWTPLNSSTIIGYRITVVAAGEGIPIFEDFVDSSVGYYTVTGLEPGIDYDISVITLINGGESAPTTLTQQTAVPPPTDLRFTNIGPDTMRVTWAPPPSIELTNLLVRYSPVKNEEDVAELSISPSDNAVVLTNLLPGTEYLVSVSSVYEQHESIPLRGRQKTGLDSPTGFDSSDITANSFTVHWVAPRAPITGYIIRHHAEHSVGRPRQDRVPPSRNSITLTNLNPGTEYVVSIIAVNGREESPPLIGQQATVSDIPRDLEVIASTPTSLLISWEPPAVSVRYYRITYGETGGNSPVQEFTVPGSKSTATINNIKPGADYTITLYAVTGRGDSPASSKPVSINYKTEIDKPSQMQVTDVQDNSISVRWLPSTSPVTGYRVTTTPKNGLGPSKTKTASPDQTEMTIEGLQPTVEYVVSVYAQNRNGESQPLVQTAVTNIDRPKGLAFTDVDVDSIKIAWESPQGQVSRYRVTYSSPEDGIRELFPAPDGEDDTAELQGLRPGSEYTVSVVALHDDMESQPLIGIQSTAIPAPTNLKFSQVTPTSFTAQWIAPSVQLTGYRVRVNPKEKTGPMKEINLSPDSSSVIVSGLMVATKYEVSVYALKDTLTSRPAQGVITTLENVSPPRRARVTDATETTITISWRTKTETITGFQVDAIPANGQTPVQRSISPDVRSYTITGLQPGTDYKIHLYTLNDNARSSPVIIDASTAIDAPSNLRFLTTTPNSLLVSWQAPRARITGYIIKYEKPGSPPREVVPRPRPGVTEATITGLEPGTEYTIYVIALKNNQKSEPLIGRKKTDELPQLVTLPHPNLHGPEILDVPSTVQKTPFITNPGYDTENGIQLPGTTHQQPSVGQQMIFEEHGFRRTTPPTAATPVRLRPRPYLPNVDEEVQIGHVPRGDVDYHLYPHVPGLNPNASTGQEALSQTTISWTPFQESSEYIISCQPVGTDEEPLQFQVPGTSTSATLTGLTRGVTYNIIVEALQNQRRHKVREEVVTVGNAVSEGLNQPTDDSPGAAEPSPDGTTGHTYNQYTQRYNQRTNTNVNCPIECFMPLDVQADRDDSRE

What was measured:
NELL2-Myc (in ST2 cells) = NELL2-Myc (in ST2 cells) (UniProt Q61220); experiment: co-IP; ST2 cells transfected with NELL2-Myc with or without Fn1 siRNA; immunoprecipitation with anti-Myc antibody; endogenous Fn1 and ITGB1 detected
NELL2-Myc [1] = target: NELL2-Myc (UniProt Q61220); experiment: co-IP; 293 T cells co-transfected with Myc- and HA-tagged constructs; lysates immunoprecipitated with protein A/G magnetic beads conjugated with anti-HA or anti-Myc; Western blotting with anti-Myc or anti-HA
[2] = target: His-labeled recombinant NELL2 (UniProt Q61220); experiment: pull-down; BMSC membrane proteins incubated with His-labeled recombinant NELL2 and anti-His antibody, protein A/G magnetic beads, room temperature 30 min; Western blotting for Fn1; only the target purified
Fn1-HA [3] = target: Fn1-HA (UniProt P11276); experiment: co-IP; 293 T cells co-transfected with Myc- and HA-tagged constructs; lysates immunoprecipitated with protein A/G magnetic beads conjugated with anti-HA or anti-Myc; Western blotting with anti-Myc or anti-HA
Fn1 C-terminal-HA = Fn1 C-terminal-HA (UniProt P11276); experiment: as above
NELL2-Myc [4] = target: NELL2-Myc (UniProt Q61220); experiment: co-IP; 293 T cells co-transfected with NELL2-Myc (1 μg) and Fn1-HA (1 μg) along with 0-2 μg of Fn1 C-terminal-HA construct; immunoprecipitation with anti-Myc, Western blotting with anti-HA and anti-Myc
Fn1-HA [5] = target: Fn1-HA (UniProt P11276); experiment: co-IP; 293 T cells co-transfected with Myc- and HA-tagged constructs; lysates immunoprecipitated with protein A/G magnetic beads conjugated with anti-HA or anti-Myc; Western blotting with anti-Myc or anti-HA; remark: listed apart in the source

Molecule: Fibronectin 1 (Fn1), endogenous in ST2 cells (from UniProt P11276 33-2477)
- binding (NELL2-Myc (in ST2 cells)): binds

Molecule: Fn1 truncation mutant lacking FNI (2296-2425 aa) (from UniProt P11276 33-2477)
- binding (NELL2-Myc [1]): binds

Molecule: Fn1 C-terminal-HA (from UniProt P11276 2296-2425) (domain or fragment)
- binding (NELL2-Myc [1]): binds

Molecule: Fibronectin 1 (Fn1), endogenous in BMSC membrane proteins (from UniProt P11276 33-2477)
- binding [2]: binds

Molecule: NELL2-Myc (from UniProt Q61220 25-819)
- binding (Fn1-HA [3]): binds
- binding (Fn1 C-terminal-HA): binds

Molecule: Fn1-HA (from UniProt P11276 33-2477)
- binding (NELL2-Myc [1]): binds
- binding (NELL2-Myc [4]): binds

B1: NELL2-Myc truncate lacking the EGF-like (406-644 aa) domain (protein, UniProt Q61220)
chain: LGVDPSLQIDVLTELELGESTDGVRQVPGLHNGTKAFLFQESPRSIKASTATAERFFQKLRNKHEFTILVTLKQIHLNSGVILSIHHLDHRYLELESSGHRNEIRLHYRSGTHRPHTEVFPYILADAKWHKLSLAFSASHLILHIDCNKIYERVVEMPSTDLPLGTTFWLGQRNNAHGYFKGIMQDVHVLVMPQGFIAQCPDLNRTCPTCNDFHGLVQKIMELQDILSKTSAKLSRAEQRMNRLDQCYCERTCTVKGTTYRESESWTDGCKNCTCLNGTIQCETLVCPAPDCPPKSAPAYVDGKCCKECKSTCQFQGRSYFEGERNTVYSSSGMCVLYECKDQTMKLVENIGCPPLDCPESHQIALSHSCCKVCKGYDFCSHEGKVKHTGQIWVLENDRCSVCSCQTGFVMCRRMVCDCENPTVDLSCCPECDPRLSSQCLHQNGETVYNSGDTWVQDCRQCRCLQGEVDCWPLACPEVECEFSVLPENECCPRCVTDPCQADTIRNDITKTCLDEMNVVRFTGSSWIKHGTECTLCQCKNGHLCCSVDPQCLQEL
- binding (Fn1-HA [5]): binds
